The target of this assay is T1, GFP-tagged Kif4A (human), O95239.
T1 chain: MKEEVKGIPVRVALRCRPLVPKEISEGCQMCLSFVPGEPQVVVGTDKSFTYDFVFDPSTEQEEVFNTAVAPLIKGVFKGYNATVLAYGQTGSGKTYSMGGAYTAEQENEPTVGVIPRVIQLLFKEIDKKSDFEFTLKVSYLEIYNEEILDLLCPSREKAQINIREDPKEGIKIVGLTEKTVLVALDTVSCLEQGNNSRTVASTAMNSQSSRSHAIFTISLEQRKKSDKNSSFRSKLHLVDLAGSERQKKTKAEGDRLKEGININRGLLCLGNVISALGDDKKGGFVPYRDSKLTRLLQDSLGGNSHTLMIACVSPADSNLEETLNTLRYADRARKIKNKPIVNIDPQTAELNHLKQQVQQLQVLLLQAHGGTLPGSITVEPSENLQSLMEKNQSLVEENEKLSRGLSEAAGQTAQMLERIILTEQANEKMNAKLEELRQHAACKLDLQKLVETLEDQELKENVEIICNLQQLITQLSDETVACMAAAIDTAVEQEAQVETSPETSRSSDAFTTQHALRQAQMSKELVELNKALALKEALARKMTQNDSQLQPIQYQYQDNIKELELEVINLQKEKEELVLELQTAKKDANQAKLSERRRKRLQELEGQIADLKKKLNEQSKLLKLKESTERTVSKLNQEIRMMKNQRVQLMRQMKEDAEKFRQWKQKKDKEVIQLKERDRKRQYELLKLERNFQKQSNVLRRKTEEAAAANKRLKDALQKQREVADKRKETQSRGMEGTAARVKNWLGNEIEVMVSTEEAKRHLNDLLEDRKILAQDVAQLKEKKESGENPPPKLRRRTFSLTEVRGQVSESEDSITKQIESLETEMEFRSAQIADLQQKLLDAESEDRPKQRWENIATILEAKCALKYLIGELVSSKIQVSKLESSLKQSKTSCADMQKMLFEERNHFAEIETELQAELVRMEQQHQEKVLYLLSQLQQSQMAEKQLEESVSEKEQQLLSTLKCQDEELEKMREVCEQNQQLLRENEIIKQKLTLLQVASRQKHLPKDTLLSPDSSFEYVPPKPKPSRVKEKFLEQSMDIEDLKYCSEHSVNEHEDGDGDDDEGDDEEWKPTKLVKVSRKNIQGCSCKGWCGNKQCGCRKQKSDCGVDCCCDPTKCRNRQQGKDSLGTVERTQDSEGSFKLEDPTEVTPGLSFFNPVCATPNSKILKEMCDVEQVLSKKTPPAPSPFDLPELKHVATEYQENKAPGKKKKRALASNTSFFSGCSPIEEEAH
Description: single-molecule fluorescence intensity measurements. The settings on record: remark: other sources report otherwise.

1 molecule from doi:10.1101/2020.12.23.424221 can be followed below.

Results are given in words; binding and its absence hold for the method and conditions named. Sequences can lack the tags named with a protein.

B1: GFP-tagged Kif4A, O95239 1-1232 (protein)
chain: T1 chain
As for B1, the binding result is given as “no binding”.
